# Laboratory results: PubChem BioAssay AID1259308 (NCATS, 2017)
# Aim: 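Candidate targets for better recombinant protein yield in mammalian cells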 (primary screen)
# Cell system: human HEK293 embryonic kidney cells stably expressing firefly luciferase (HEK-CMV-Luc2-Hygro)
# Knock-down reagent: single siRNA against human genes, 0.8 pmol siRNA per well
# Duration: 72 h
# Measurement: 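Luciferase light (ONE-Glo) measured on one replicate plate set and viability (CellTiter-Glo) on the other, scaled to a negative control siRNA, with robust z-scores and luciferase per cell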
# Direction: total luciferase, z-score and total luciferase, % of control: higher = more reporter protein produced; luciferase per cell, z-score: higher = more reporter output per viable cell
# Call rule: 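An siRNA counts as active if its total luciferase robust z-score exceeds 3; genes with two or more such siRNAs out of three were retested with fresh siRNAs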
# Calls: active = raised luciferase; inactive = no rise
# The deposit covers about 59,000 reagents; below is a part drawn at random. About 1,510 of all reagents (2.6%) count as active. 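Calls use total luciferase alone and ignore viability, so some active siRNAs may act by altering cell number.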 The numbers tell different reagents against one gene apart. Further read-outs or replicates are left out here.
gene symbol,reagent no.,"total luciferase, z-score","total luciferase, % of control","luciferase per cell, z-score",call
CRADD (CARD and death domain containing adaptor protein),1,-1.73,47.6,-1.93,inactive
CRADD (CARD and death domain containing adaptor protein),2,-0.319,75.5,-0.161,inactive
CRADD (CARD and death domain containing adaptor protein),3,-1.31,55.8,-1.48,inactive
ENTR1 (endosome associated trafficking regulator 1),1,2.75,137,3.83,inactive
ENTR1 (endosome associated trafficking regulator 1),2,-1.01,61.8,-0.53,inactive
ENTR1 (endosome associated trafficking regulator 1),3,0.0132,82.1,-0.643,inactive
VPS4B (vacuolar protein sorting 4 homolog B),1,0.423,90.3,0.23,inactive
VPS4B (vacuolar protein sorting 4 homolog B),2,-0.745,67.1,-0.146,inactive
VPS4B (vacuolar protein sorting 4 homolog B),3,-1.3,55.9,-0.4,inactive
BPIFB1 (BPI fold containing family B member 1),1,0.809,98,0.835,inactive
BPIFB1 (BPI fold containing family B member 1),2,-0.94,63.2,-1.02,inactive
BPIFB1 (BPI fold containing family B member 1),3,1.52,112,1.03,inactive
YAF2 (YY1 associated factor 2),1,-0.924,63.5,-0.625,inactive
YAF2 (YY1 associated factor 2),2,-0.309,75.7,-0.57,inactive
YAF2 (YY1 associated factor 2),3,3.59,153,3.65,active
IL16 (interleukin 16),1,0.623,94.3,0.65,inactive
IL16 (interleukin 16),2,-0.708,67.8,-0.435,inactive
IL16 (interleukin 16),3,-1.8,46,-0.15,inactive
PDE6G (phosphodiesterase 6G),1,-0.0654,80.6,-0.882,inactive
PDE6G (phosphodiesterase 6G),2,-1.88,44.4,-1.29,inactive
PDE6G (phosphodiesterase 6G),3,0,81.9,-0.0449,inactive
INTS10 (integrator complex subunit 10),1,0.927,100,0.665,inactive
INTS10 (integrator complex subunit 10),2,0.756,96.9,0.903,inactive
INTS10 (integrator complex subunit 10),3,0.641,94.6,-0.295,inactive
GCFC2 (GC-rich sequence DNA-binding factor 2),1,-0.792,66.1,-0.957,inactive
GCFC2 (GC-rich sequence DNA-binding factor 2),2,-0.479,72.4,-0.617,inactive
GCFC2 (GC-rich sequence DNA-binding factor 2),3,-1.24,57.2,-1.3,inactive
GOLGA8B (golgin A8 family member B),1,1.25,107,0.603,inactive
GOLGA8B (golgin A8 family member B),2,-0.654,68.9,-0.117,inactive
GOLGA8B (golgin A8 family member B),3,1.22,106,0.56,inactive
PFDN5 (prefoldin subunit 5),1,1.11,104,1.67,inactive
PFDN5 (prefoldin subunit 5),2,2.71,136,2.44,inactive
PFDN5 (prefoldin subunit 5),3,-1.54,51.3,0.794,inactive
PSG1 (pregnancy specific beta-1-glycoprotein 1),1,0.0724,83.3,0.735,inactive
PSG1 (pregnancy specific beta-1-glycoprotein 1),2,0.376,89.4,0.637,inactive
PSG1 (pregnancy specific beta-1-glycoprotein 1),3,-1.55,51.1,-1.49,inactive
TRIM5 (tripartite motif containing 5),1,-0.593,70.1,-0.477,inactive
TRIM5 (tripartite motif containing 5),2,-1.57,50.6,-1.19,inactive
TRIM5 (tripartite motif containing 5),3,0.0637,83.2,0.414,inactive
RETREG3 (reticulophagy regulator family member 3),1,0.759,97,1.91,inactive
RETREG3 (reticulophagy regulator family member 3),2,0.733,96.5,1.58,inactive
RETREG3 (reticulophagy regulator family member 3),3,2.42,130,1.96,inactive
KRTAP1-3 (keratin associated protein 1-3),1,-0.641,69.1,-1.15,inactive
KRTAP1-3 (keratin associated protein 1-3),2,0.556,92.9,1.54,inactive
KRTAP1-3 (keratin associated protein 1-3),3,-0.815,65.7,-0.361,inactive
SLC25A27,1,-1.13,59.5,-1.19,inactive
SLC25A27,2,1.06,103,0.597,inactive
SLC25A27,3,-0.215,77.6,0.299,inactive
CERNA2 (competing endogenous lncRNA 2 for microRNA let-7b),1,0.549,92.8,0.0586,inactive
CERNA2 (competing endogenous lncRNA 2 for microRNA let-7b),2,0.156,85,0.186,inactive
CERNA2 (competing endogenous lncRNA 2 for microRNA let-7b),3,-0.188,78.1,1.11,inactive
"ELANE (elastase, neutrophil expressed)",1,0.418,90.2,0.27,inactive
"ELANE (elastase, neutrophil expressed)",2,0.123,84.3,-0.315,inactive
"ELANE (elastase, neutrophil expressed)",3,1.57,113,0.89,inactive
LINC00200 (long independently transcribed non-coding RNA 200),1,0.273,87.3,0.887,inactive
LINC00200 (long independently transcribed non-coding RNA 200),2,2.05,123,0.974,inactive
LINC00200 (long independently transcribed non-coding RNA 200),3,0.844,98.7,-0.712,inactive
